The test system of assay [1] is SARS-CoV-2 -1 PRF reporter mCherry-FSE-GFP(-1). Put plainly: mCherry (red) intensity as percent of control; higher = higher upstream reporter expression. The conditions noted are these: 10 µM; 24 h; HEK293T.
For assay [2] the test system is unchanged. In words: percent effect, decrease of GFP/mCherry ratio (-1 PRF reporter) relative to controls; higher = stronger frameshift inhibition. The conditions noted are these: 10 µM; 24 h; HEK293T.

“And” between values parts separate entries of the source, which are not always exact repeats. Identical values can stand only once. This is one part of the list. Single values are uncertain here, since repeats match poorly.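 HEK293T cells were given each compound shortly before transfection with a reporter in which red mCherry is followed by the SARS-CoV-2 frameshift element and then GFP in the −1 frame, so GFP appears only after frameshifting.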

On to `CCOc1ccc(NC(=S)Nc2ccc(OCC)cc2)cc1` [etocarlide], for which the mCherry in assay [1] was determined as 22.3%. The percent effect in assay [2] was -14.5%.
For the molecule `Nc1nc2ccc(OC(F)(F)F)cc2s1`, in assay [1], the mCherry worked out at 96.9%. Also, the percent effect in assay [2] was -0.0564%.
In the same order, the values of `Cn1nc(-c2cccc(F)c2)n(C)c1=S` [suritozole] are 102% and -2.84%.
As to `O=c1[nH]c(=O)n(C2CCCO2)cc1F` (stereo not given) [tegafur], the mCherry in assay [1] was 52.2%. Besides, the percent effect in assay [2] is -1.78%.
Consider `C=C1/C(=C\C=C2/CCC[C@]3(C)[C@@H]([C@H](C)CCCC(C)(C)O)CC[C@@H]23)C[C@@H](O)C[C@@H]1O` [calcitriol], for which, in assay [1], the mCherry is 92.6% and 101%. Besides, the percent effect in assay [2] was -3.6% and -0.793%.
`CC(C)(CO)C(O)C(=O)NCCC(=O)O` (stereo not given): in assay [1], the mCherry came to 124%. For the same molecule, the percent effect in assay [2] worked out at 2.95%.
`N[C@@H]1CCCC[C@H]1N.O=C([O-])C(=O)[O-].[Pt+2]` registered a mCherry in assay [1] of 108%. In addition, the percent effect in assay [2] was -3.73%.
As for `NCCC[C@H](N)CC(=O)N[C@H]1CNC(=O)[C@H]([C@H]2C[C@H](O)NC(N)=N2)NC(=O)/C(=C/NC(N)=O)NC(=O)[C@H](CO)NC(=O)[C@H](CO)NC1=O` [viomycin], in assay [1], the mCherry was determined as 128%. The percent effect in assay [2] was 2.6%.
For `NC(=O)NCCC[C@H](N)C(=O)O`, the mCherry in assay [1] is 114% and 107%. The percent effect in assay [2] was -6.42% and -1.42%.
The molecule `CO[C@@H]1[C@@H](O[C@@H]2O[C@H](C)[C@@H](O[C@H]3C[C@@](C)(O)[C@@H](OC(=O)CC(C)C)[C@H](C)O3)[C@H](N(C)C)[C@H]2O)[C@@H](CC=O)C[C@@H](C)[C@@H](O)/C=C/C=C/C[C@@H](C)OC(=O)C[C@H]1OC(C)=O` [josamycin] returned a mCherry in assay [1] of 92.6%. The percent effect in assay [2] is -0.682%.
`Cc1cc(C(C)(C)C)c(O)c(C(C)(C)C)c1` returned a mCherry in assay [1] of 96.9%. Moreover, the percent effect in assay [2] is -0.518%.
In the case of `CCN(CC)CCOCCOC(=O)C(CC)(CC)c1ccccc1` [oxeladin], in assay [1], the mCherry came out at 82.1%. Moreover, in assay [2], the percent effect was -3.38%.
`C[N+](C)(CCOc1ccccc1)Cc1cccs1` [thenium closilate] came in with a mCherry in assay [1] of 114%. For the same molecule, the percent effect in assay [2] is -3.9%.
For the molecule `COc1ccc(-c2cc(=O)c3c(O)cc(O[C@@H]4O[C@H](CO[C@@H]5O[C@@H](C)[C@H](O)[C@@H](O)[C@H]5O)[C@@H](O)[C@H](O)[C@H]4O)cc3o2)cc1O` [diosmin], the mCherry in assay [1] was 101% and 84.6%. Moreover, the percent effect in assay [2] was 2.04% and -4.84%.
As to `C[C@H](N[C@@H](CCc1ccccc1)C(=O)O)C(=O)N1C(=O)N(C)C[C@H]1C(=O)O` [imidaprilat], the mCherry in assay [1] was 81.3%. In assay [2], the percent effect was -7.84%.
In assay [1], `CN(C)C(=O)N[C@H]1CC[C@H](CCN2CCN(c3cccc(Cl)c3Cl)CC2)CC1` [Cariprazine] yielded a mCherry of 105%. For the same molecule, the percent effect in assay [2] was 0.888%.
In assay [1], `O=c1[nH]c(=O)n([C@H]2C[C@H](O)[C@@H](CO)O2)cc1/C=C/Br` [brivudine] showed a mCherry of 67.2%. Moreover, the percent effect in assay [2] was -10.5%.
Regarding `Cc1c(Nc2ncccc2C(=O)O)cccc1C(F)(F)F` [flunixin], the mCherry in assay [1] was determined as 154%. Also, in assay [2], the percent effect was -2.65%.
For the molecule `O=C(Nc1ccc(O)cc1)c1ccccc1O` [osalmid], the mCherry in assay [1] was 96.3%. Further, in assay [2], the percent effect was -2.12%.
With `CCC(Cc1c(I)cc(I)c(N)c1I)C(=O)O` (stereo not given) [iopanoic acid], the mCherry in assay [1] was 134%. Also, the percent effect in assay [2] was determined as 0.435%.
`NC[C@H]1O[C@H](O[C@H]2[C@H](O[C@@H]3O[C@H](CO)[C@@H](O)[C@H]3O)[C@@H](O)[C@H](N)C[C@@H]2N)[C@H](N)[C@@H](O)[C@@H]1O`: the mCherry in assay [1] came to 108%. For the same molecule, in assay [2], the percent effect is -1.98%.
The molecule `O=C(CNC(=O)c1ccc(Cl)cc1)NO` [benurestat] gave a mCherry in assay [1] of 98.3%. In addition, in assay [2], the percent effect is -2.47%.
With `COc1c(C)c2c(c(O)c1C/C=C(\C)CCC(=O)OCCN1CCOCC1)C(=O)OC2`, in assay [1], the mCherry was 187% and 166%. Further, the percent effect in assay [2] was -10.1% and -9.69%.
`CCCCC(=O)O[C@]1(C(=O)CO)[C@@H](C)C[C@H]2[C@@H]3CCC4=CC(=O)C=C[C@]4(C)[C@@]3(F)[C@@H](O)C[C@@]21C`: the mCherry in assay [1] stood at 95.1%. Besides, the percent effect in assay [2] was 0.515%.
`CNCCCC1c2ccccc2C=Cc2ccccc21`: in assay [1], the mCherry stood at 134%. Besides, in assay [2], the percent effect was 1.07%.
`CC(=O)O[C@H](CC(=O)[O-])C[N+](C)(C)C` [Acetylcarnitine] gave a mCherry in assay [1] of 88.7%. In addition, the percent effect in assay [2] is -0.718%.
Molecule `C=CCc1ccc(O)c(OC)c1` registered a mCherry in assay [1] of 124%. The percent effect in assay [2] was -1.58%.
In the same order, the values of `CO/N=C(\C(=O)N[C@@H]1C(=O)N2C(C(=O)O)=C(CSc3nc(=O)c(O)nn3C)CS[C@H]12)c1csc(N)n1` [Rocephin] are 100% and -1.75%.
`COc1cc(Cc2cnc(N)nc2N)cc(OC)c1Br` [brodimoprim] came in with a mCherry in assay [1] of 52.6%. The percent effect in assay [2] is 0.396%.
In the same order, the values of `C=C1c2c(Cl)ccc(O)c2C(O)=C2C(=O)[C@]3(O)C(O)=C(C(N)=O)C(=O)[C@@H](N(C)C)[C@@H]3[C@@H](O)[C@H]12.O=C(O)c1cc(S(=O)(=O)O)ccc1O` are 91.6% and 0.698%.
In turn, `O=C(CCCCC(=O)Nc1c(I)cc(I)c(C(=O)O)c1I)Nc1c(I)cc(I)c(C(=O)O)c1I` registered a mCherry in assay [1] of 114%. Moreover, in assay [2], the percent effect came to 0.579%.
`CC(O)CC(C)(C)O` (stereo not given): the mCherry in assay [1] worked out at 91.6%. In addition, the percent effect in assay [2] is -7.31%.
In assay [1], `CO[C@H]1C[C@@H]2CC[C@@H](C)[C@@](O)(O2)C(=O)C(=O)N2CCCC[C@H]2C(=O)O[C@H]([C@H](C)C[C@@H]2CC[C@@H](OC(=O)C(C)(CO)CO)[C@H](OC)C2)CC(=O)[C@H](C)/C=C(\C)[C@@H](O)[C@@H](OC)C(=O)[C@H](C)C[C@H](C)/C=C/C=C/C=C/1C` [Temsirolimus] had a mCherry of 86.4%. In addition, the percent effect in assay [2] was -2.45%.
`CCC[C@@H]1C[C@@H](C(=O)N[C@@H]([C@H]2O[C@H](SC)[C@H](O)[C@@H](O)[C@H]2O)[C@@H](C)O)N(C)C1` [lincomycin] registered a mCherry in assay [1] of 118%. The percent effect in assay [2] was -18.3%.
Molecule `O=C1C[C@@]2(C(=O)N1)C(=O)N(Cc1ccc(Br)cc1F)C(=O)c1cccn12` [ranirestat] yielded a mCherry in assay [1] of 112%. Further, in assay [2], the percent effect was -3.85%.

The values are drawn from the supplement of paper PMC8256030.
